In PubChem BioAssay AID2685 (National Center for Advancing Translational Sciences (NCATS), 2010):
The list shows a part of the results. These are further read-outs of the screen, such as a control signal, another cell line or another target. No call is given for them. Compounds called inactive in the main read-out are mostly missing here. The note in brackets gives the kind of curve behind each potency; many fits are weak.

Assay: qHTS Assay for Lipid Storage Modulators in Drosophila S3 Cells;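 on cell number change: cells counted by Cell Tracker Red CMTPX staining in the red channel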
Conditions: BODIPY lipid droplet fluorescence, 18-24 h; for cell number change: measured here: cell count max response, cells fed with added oleic acid
Summary of the method: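 Drosophila S3 cells got compounds at several concentrations plus oleic acid (400 uM solution). Laser-scanning cytometry with 488 nm excitation read lipid droplets at 500-530 nm and cells at 575-640 nm. Percent activity was relative to 20 uM Triacsin C.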

[1] = measured here: lipid fluorescence (Fed channel) AC50, cells fed with added oleic acid
[2] = measured here: cell number channel AC50, cells fed with added oleic acid

SMILES	cell number change [%]	AC50 [1]	AC50 [2]
O=C(NCCO)c1c(O)c2cccc3c2n(c1=O)CC3	24.9	1.16 µM [rising, partial curve]	–
CC(=O)Nc1ccc(O)c(-c2nc3ccccc3s2)c1	-29.4	32.6 µM [falling, single point]	–
COc1ccc(/C=C/C(=O)c2c(C)nc3ccccn23)cc1	-13.9	8.2 µM [falling, partial curve]	–
O=C1C(=O)N(CCN2CCOCC2)C(c2ccccc2F)/C1=C(\O)c1ccc(S(=O)(=O)N2CCOCC2)cc1 (stereo unspecified)	-1.28	–	–
COc1ccc(CCC(=O)Nc2ccc(S(=O)(=O)Nc3nccc(C)n3)cc2)cc1	-5.56	20.6 µM [rising, single point]	–
CCOc1ccc(C(C)=O)cc1COc1ccc(-n2cnnn2)cc1	16.8	–	–
Cc1cc(Cl)ccc1OCC(=O)OCC(=O)Nc1ccc(F)c([N+](=O)[O-])c1	-7.01	29.1 µM [falling, single point]	–
CC(C)CC1NC(=O)N(CC(=O)NC2CCCCC2)C1=O (stereo unspecified)	-29.3	–	7.31 µM [falling, single point]
CCn1c(SCC(=O)NNC(=O)c2ccc(C)cc2)nnc1C1CC1	17.1	0.651 µM [rising, single point]	–
Cc1nnc(NC(=O)CSc2nnc(Cc3cccn3C)n2-c2cccc(C(F)(F)F)c2)s1	-13.5	14.6 µM [falling, partial curve]	0.651 µM [falling, partial curve, poor fit]
COc1ccc(-c2c(O)c(C#N)c(-c3ccccc3)n(-c3ccc(OC)cc3)c2=O)cc1	2.14	0.731 µM [falling, partial curve, poor fit]	–
COc1cccc(CNC(=O)c2ccc(N3CCOCC3)c([N+](=O)[O-])c2)c1	-19.7	35.5 µM [falling, single point]	–
CCOC(=O)c1cc2c(ccn2-c2ccc(F)cc2)n1CC(=O)N(CC)CC	-57.5	5.8 µM [falling, partial curve]	2.59 µM [falling, partial curve]
CCN1CCN(S(=O)(=O)c2ccc(C(=O)Nc3sc4c(c3C(N)=O)CCN(CC)C4)cc2)CC1	23.8	29.1 µM [rising, single point]	–
Cc1nc(C(=O)N(C)C)nn1-c1ccc([N+](=O)[O-])cc1	-12.6	18.4 µM [falling, single point]	–
Cc1cc(C)cc(NC(=O)C(OC(=O)c2ccc(O)cc2)c2ccccc2)c1 (stereo unspecified)	-37.3	0.116 µM [rising, full curve, poor fit]	23.1 µM [falling, partial curve]
CCN1CCN(C(=O)C2CCCN(S(=O)(=O)c3ccc(OC)c(OC)c3)C2)CC1 (stereo unspecified)	21.4	18.4 µM [rising, partial curve]	–
CSCCC(=O)Nc1cc(S(=O)(=O)N2CCOCC2)ccc1N1CCN(C)CC1	18.5	–	–
COC(=O)c1ccc(CSc2nnc3c(Cl)cc(Cl)cn23)o1	-18.5	2.91 µM [rising, full curve]	–

SMILES	cell number change [%]	AC50 [1]	AC50 [2]
Nc1ccccc1-c1nnc(-c2ccc(-c3ccccc3)cc2)o1	-59.6	–	13 µM [falling, partial curve, poor fit]
CC(O)CNCCOc1ccccc1OCc1ccccc1 (stereo unspecified)	-13.2	29.1 µM [falling, single point]	–
O=C(CCCc1cccs1)Nc1nc(-c2ccc(F)cc2)cs1	2.69	1.3 µM [falling, full curve, poor fit]	–
CCc1ccc(OCC(=O)NC(=S)Nc2ccc(S(=O)(=O)NC3CCCCC3)cc2)cc1	26.8	–	2.31 µM [rising, full curve, poor fit]
COc1ccccc1C(=O)OCC(=O)Nc1ccccc1OC(F)F	4.66	0.366 µM [rising, full curve]	–
CC(=O)N1C(=O)N(C(C)=O)C2C1N(C(C)=O)C(=O)N2C(C)=O (stereo unspecified)	-58.9	16.4 µM [falling, partial curve]	20.6 µM [falling, single point]
COc1cccc(C(=O)Nc2cc3c4c(c2)CC(=O)N4CCC3)c1	–	–	2.31 µM [rising, partial curve]
COc1ccc(/C=C/C(=O)NCCCn2ccnc2)cc1	28.8	10.3 µM [rising, partial curve, poor fit]	–
Cc1cccc(NC(=O)c2onc3c2CCCC3)n1	-7.63	20.6 µM [rising, single point]	–
Cc1ccc(NC2=C/C(=N/S(=O)(=O)c3cccs3)c3ccccc3C2=O)cc1	-82	4.11 µM [falling, partial curve]	20.6 µM [falling, partial curve]
Cc1csc(NC(=S)Nc2cccc(Cl)c2)n1	-3.01	2.06 µM [rising, partial curve, poor fit]	0.651 µM [rising, single point]
O=C(CC(NC(=O)c1ccccc1Cl)c1ccccc1)NC1=NCCS1 (stereo unspecified)	–	–	2.31 µM [rising, partial curve]
Cc1cc(C)c2nc(SC(C)C#N)cc(C)c2c1 (stereo unspecified)	–	0.651 µM [rising, full curve]	0.651 µM [rising, partial curve, poor fit]
Oc1ccc(/C(Cc2ccccn2)=N\Nc2ccccc2)c(O)c1	-35.7	23.1 µM [falling, single point]	20.6 µM [falling, single point]
COc1cc(OC)c(C(=O)O/N=C(\N)c2ccccn2)cc1OC	-18	16.4 µM [falling, single point]	–
CC(C)(C)C(=O)/C(=C/c1ccncc1)n1cncn1	-54.5	23.1 µM [falling, partial curve]	23.1 µM [falling, single point]
Cc1cccc(C)c1NC(=O)c1cccc(N2C(=O)C3CCC(C)CC3C2=O)c1 (stereo unspecified)	-18.8	0.13 µM [rising, full curve, poor fit]	–
COC(=O)c1cc2occc2n1CC(=O)Nc1ccc(OC)c(OC)c1OC	4.96	–	–
O=C(Nc1ccccc1F)c1ccc(S(=O)(=O)NCC2CCCO2)cc1 (stereo unspecified)	2.98	29.1 µM [falling, single point]	–

SMILES	cell number change [%]	AC50 [1]	AC50 [2]
COc1ccc(C(=O)Nn2cnnc2)c(OC)c1	-69.3	–	29.1 µM [falling, single point]
C/C(=N/NC(=O)c1cccs1)c1ccc(N2CCOCC2)cc1	20.8	13 µM [rising, partial curve]	–
CCN1CCN(c2nc(-c3ccccc3)c3ccccc3n2)CC1	0.952	6.51 µM [falling, partial curve, poor fit]	–
COc1ccc(N(C(=O)c2cnccn2)C(C(=O)NCc2ccccc2)c2ccc(O)cc2)cc1 (stereo unspecified)	–	6.51 µM [rising, partial curve, poor fit]	–
COc1cc([N+](=O)[O-])ccc1NC(=O)Nc1ccc(C(=O)N2CCCC2)cc1	25.2	29.1 µM [rising, single point]	–
CCC(=O)Nn1c(C2CCC2)nc2ccccc2c1=O	0.265	4.11 µM [falling, single point]	–
O=C(CCCN1C(=O)C(c2ccccc2)Oc2cccnc21)NCc1ccccc1F (stereo unspecified)	-7.91	–	0.146 µM [rising, partial curve]
CC(CN1CCOCC1)OC(=O)/C=C/c1ccccc1 (stereo unspecified)	18.2	–	–
COC(=O)c1c(-c2c(Cl)cccc2Cl)noc1NC(=O)NN1CCOCC1	-54.8	2.91 µM [falling, full curve]	2.91 µM [falling, full curve]
COc1ccc(NC(=O)COC(=O)c2ccc(-n3cnnn3)cc2)c([N+](=O)[O-])c1	-50.1	0.92 µM [falling, full curve]	0.651 µM [falling, full curve]
COc1ccc(C(=O)NNC(=O)CSc2nnc(COc3ccc4ccccc4c3)n2C)cc1	33.9	–	3.66 µM [rising, single point]
CCCN1CCc2c(sc(NC(=O)c3ccc(S(=O)(=O)N(C)c4ccccc4)cc3)c2C(=O)NC)C1	–	0.58 µM [falling, full curve]	–
O=C1C(=O)N(Cc2cccnc2)C(c2cccc([N+](=O)[O-])c2)/C1=C(\O)c1ccc2c(c1)OCCO2 (stereo unspecified)	-8.55	29.1 µM [rising, single point]	–
O=C(N1CCOCC1)C12CC3CC(C1)CC(C(=O)N1CCOCC1)(C3)C2	19.9	3.26 µM [rising, single point]	2.91 µM [rising, full curve, poor fit]
COc1ccc(N2CCN(C(=O)CCc3ccc(S(=O)(=O)NC(C)(C)C)cc3)CC2)cc1	-27.5	–	0.116 µM [falling, full curve, poor fit]
O=C(CN1C(=O)NC(CCc2ccccc2)C1=O)NC1CC1 (stereo unspecified)	-19.4	–	–
NC(=O)Nc1ccc(Oc2ncc(C(F)(F)F)cc2Cl)cc1	33.4	–	25.9 µM [rising, single point]
CCC(=O)OCCNc1nc(-c2ccccc2)nc2ccccc12	-33.6	32.6 µM [falling, partial curve]	32.6 µM [falling, partial curve, poor fit]
COc1cc(C(=O)O/N=C(\N)Cc2ccc([N+](=O)[O-])cc2)cc(OC)c1OC	12.7	2.06 µM [rising, partial curve]	–

A portion taken from the entries so far, as a working copy:
SMILES	cell number change [%]	AC50 [1]	AC50 [2]
CCC(=O)Nn1c(C2CCC2)nc2ccccc2c1=O	0.265	4.11 µM [falling, single point]	–
O=C(CCCN1C(=O)C(c2ccccc2)Oc2cccnc21)NCc1ccccc1F (stereo unspecified)	-7.91	–	0.146 µM [rising, partial curve]
CC(CN1CCOCC1)OC(=O)/C=C/c1ccccc1 (stereo unspecified)	18.2	–	–
COC(=O)c1c(-c2c(Cl)cccc2Cl)noc1NC(=O)NN1CCOCC1	-54.8	2.91 µM [falling, full curve]	2.91 µM [falling, full curve]
